Results are given in words; binding and its absence hold for the method and conditions named. For part of these data: Binding seen in cells or lysates may run through a third protein. Some entries that bind do so weakly or less than the wild type.
Tests used:
[1] = target: RNF126 (endogenous, HCC1806) (human (endogenous in HCC1806)) (UniProt Q9BV68); assay: SEC; FPLC of native complexes: extracts of HCC1806 cells 1 h post-IR (10 Gy) fractionated on Superose 6 size-exclusion columns with a high-salt buffer; Western blotting of fractions
[2] = target: RNF126 (endogenous, HCC1806) (human (endogenous in HCC1806)) (UniProt Q9BV68); assay: co-IP; endogenous proteins; HCC1806 cells treated with or without IR (10 Gy), extracts harvested 1 h after IR; coimmunoprecipitation, Western blotting
GST-RNF126 (human) = GST-RNF126 (human) (UniProt Q9BV68); assay: pull-down; GST-fused RNF126 or its fragments and FLAG-RAD50, FLAG-NBS1 or FLAG-MRE11 co-expressed in HEK293T cells; GST-pulldown, Western blotting
[3] = target: RNF126 (construct of Figures S3A-D, not shown) (human) (UniProt Q9BV68); assay: co-IP; co-IP of RNF126 and RAD50 (Figure S3A,B); cells and constructs not shown

Sequences of proteins named here, by UniProt entry; tags and fusion partners are left off. A change or cut given only in a name is not applied to a line headed by its entry.
UniProt Q9BV68: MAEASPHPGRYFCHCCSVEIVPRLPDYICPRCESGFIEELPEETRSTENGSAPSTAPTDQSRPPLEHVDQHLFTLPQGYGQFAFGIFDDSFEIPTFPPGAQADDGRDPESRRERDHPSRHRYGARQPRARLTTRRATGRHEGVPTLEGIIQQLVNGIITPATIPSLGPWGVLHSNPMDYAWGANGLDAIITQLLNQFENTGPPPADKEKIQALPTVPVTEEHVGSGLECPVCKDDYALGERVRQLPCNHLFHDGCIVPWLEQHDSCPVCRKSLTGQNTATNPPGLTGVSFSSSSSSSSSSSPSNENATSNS
UniProt O60934: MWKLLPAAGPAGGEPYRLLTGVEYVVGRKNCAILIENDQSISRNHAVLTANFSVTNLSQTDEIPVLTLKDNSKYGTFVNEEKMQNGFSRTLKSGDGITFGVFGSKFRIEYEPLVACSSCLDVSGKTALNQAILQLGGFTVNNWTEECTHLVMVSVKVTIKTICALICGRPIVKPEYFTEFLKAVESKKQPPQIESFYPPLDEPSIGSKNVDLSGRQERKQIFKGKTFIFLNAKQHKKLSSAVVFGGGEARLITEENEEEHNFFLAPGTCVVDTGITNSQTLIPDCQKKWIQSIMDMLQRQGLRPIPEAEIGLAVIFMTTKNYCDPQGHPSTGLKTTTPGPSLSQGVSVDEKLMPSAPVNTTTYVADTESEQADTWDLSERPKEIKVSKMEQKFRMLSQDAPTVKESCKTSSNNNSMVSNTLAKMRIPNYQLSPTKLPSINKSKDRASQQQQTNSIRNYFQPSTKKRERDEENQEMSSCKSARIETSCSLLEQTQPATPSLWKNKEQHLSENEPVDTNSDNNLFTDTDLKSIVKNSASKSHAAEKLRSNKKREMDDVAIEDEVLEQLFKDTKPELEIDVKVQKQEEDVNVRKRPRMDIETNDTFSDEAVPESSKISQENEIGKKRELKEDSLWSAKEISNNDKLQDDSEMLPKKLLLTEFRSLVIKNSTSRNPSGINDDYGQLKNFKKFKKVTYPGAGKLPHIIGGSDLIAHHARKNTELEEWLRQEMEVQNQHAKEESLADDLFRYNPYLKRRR
UniProt Q92878: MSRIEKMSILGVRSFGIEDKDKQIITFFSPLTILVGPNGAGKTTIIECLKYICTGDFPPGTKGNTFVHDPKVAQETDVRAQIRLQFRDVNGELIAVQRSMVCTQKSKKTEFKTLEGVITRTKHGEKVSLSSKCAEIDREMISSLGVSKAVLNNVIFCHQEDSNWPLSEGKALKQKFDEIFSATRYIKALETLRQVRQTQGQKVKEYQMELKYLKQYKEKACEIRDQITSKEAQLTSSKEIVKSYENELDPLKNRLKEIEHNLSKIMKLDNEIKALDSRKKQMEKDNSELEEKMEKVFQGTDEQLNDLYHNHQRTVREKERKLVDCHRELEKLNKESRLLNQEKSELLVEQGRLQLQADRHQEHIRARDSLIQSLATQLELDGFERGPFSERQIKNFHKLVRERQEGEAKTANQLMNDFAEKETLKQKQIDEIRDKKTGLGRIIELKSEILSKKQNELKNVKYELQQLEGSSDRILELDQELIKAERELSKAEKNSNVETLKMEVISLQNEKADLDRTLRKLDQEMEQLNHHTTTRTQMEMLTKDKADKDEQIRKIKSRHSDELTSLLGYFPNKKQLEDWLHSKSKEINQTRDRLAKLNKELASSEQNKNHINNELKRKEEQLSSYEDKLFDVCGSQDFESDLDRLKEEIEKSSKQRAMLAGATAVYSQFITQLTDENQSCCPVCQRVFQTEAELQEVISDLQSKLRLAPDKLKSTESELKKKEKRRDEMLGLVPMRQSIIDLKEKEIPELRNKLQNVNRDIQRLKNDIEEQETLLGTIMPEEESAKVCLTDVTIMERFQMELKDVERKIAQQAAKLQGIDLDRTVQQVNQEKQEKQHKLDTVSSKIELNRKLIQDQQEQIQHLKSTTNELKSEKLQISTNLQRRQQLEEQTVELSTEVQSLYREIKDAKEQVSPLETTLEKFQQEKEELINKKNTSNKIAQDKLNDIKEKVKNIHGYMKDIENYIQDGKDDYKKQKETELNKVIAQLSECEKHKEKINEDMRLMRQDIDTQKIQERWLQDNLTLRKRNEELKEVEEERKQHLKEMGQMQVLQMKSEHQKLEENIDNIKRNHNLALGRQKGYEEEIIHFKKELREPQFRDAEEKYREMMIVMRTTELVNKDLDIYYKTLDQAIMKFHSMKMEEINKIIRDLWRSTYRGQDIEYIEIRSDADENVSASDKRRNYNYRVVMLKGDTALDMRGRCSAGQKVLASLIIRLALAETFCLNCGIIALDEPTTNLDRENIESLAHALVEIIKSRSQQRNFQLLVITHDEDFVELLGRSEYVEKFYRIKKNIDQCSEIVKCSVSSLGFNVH
UniProt Q13535: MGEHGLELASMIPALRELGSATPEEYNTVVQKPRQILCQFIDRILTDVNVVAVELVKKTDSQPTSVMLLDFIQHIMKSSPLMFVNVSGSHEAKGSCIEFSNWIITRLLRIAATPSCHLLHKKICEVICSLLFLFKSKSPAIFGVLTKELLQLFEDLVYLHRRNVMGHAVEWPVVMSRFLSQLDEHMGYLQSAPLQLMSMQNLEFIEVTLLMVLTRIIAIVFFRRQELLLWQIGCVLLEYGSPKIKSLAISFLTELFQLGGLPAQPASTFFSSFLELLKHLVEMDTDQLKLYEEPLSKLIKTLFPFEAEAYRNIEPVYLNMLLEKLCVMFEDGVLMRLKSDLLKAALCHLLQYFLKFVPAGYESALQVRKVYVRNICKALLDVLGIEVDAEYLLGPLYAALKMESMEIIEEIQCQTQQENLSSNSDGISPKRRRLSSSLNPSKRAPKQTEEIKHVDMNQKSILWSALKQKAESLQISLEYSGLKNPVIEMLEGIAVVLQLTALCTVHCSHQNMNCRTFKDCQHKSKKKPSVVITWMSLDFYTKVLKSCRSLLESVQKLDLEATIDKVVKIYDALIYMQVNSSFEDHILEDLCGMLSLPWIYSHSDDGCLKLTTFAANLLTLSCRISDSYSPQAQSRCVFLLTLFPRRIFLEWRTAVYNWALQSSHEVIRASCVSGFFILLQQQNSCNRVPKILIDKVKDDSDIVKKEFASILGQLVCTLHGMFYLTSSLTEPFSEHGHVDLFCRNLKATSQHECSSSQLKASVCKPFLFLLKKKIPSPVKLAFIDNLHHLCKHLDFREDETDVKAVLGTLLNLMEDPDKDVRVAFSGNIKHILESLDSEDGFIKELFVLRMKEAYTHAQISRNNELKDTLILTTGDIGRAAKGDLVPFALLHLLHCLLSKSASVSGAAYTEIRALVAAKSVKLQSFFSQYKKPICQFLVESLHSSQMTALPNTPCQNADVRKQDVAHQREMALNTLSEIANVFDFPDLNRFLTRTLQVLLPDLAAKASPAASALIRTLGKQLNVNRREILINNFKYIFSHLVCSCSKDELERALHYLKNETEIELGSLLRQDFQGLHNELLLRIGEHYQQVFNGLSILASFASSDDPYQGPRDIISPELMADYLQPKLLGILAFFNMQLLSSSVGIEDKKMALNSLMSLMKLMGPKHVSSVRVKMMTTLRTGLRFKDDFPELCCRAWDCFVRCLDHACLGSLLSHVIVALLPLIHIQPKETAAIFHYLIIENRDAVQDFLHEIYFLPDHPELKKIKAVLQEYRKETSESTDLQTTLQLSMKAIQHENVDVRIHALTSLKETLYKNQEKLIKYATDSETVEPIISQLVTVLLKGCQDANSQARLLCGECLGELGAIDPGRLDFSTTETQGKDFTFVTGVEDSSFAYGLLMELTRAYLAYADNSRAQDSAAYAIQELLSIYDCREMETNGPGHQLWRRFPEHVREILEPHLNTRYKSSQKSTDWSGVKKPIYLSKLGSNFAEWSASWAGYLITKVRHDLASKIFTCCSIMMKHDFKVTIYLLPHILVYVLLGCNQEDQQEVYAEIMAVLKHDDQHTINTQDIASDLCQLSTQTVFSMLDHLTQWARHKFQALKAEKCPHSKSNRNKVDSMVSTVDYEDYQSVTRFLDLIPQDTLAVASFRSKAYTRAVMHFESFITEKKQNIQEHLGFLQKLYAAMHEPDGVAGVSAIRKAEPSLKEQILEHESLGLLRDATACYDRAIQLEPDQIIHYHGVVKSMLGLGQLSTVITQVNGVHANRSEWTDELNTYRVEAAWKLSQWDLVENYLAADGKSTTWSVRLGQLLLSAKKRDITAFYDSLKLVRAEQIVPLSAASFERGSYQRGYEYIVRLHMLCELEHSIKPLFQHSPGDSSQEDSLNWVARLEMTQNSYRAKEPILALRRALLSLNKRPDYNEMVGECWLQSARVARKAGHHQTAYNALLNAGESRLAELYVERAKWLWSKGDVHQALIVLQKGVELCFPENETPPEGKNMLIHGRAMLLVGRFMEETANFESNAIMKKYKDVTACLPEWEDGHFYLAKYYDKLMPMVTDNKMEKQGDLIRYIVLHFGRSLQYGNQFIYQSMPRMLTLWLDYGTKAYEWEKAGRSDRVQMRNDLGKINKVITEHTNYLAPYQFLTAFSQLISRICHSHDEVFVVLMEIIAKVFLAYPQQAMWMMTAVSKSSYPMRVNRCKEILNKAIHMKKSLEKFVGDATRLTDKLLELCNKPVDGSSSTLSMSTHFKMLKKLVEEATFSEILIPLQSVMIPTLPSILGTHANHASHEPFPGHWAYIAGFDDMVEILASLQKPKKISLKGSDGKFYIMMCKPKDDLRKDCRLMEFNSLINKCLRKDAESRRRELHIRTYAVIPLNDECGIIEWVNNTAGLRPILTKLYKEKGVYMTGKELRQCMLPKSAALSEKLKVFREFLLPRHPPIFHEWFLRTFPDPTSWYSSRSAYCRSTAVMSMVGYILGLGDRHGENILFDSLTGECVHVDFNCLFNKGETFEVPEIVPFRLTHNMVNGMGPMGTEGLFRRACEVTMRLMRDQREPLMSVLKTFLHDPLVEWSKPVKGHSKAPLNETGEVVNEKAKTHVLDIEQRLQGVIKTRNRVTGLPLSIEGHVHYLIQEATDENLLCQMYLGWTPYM

| Substance | binding [1] | binding [2] | binding (GST-RNF126 (human)) | binding [3] |
| --- | --- | --- | --- | --- |
| FLAG-NBS1 (from UniProt O60934 1-754) | – | – | binds | – |
| FLAG-RAD50 (from UniProt Q92878 1-1312) | – | – | binds | – |
| RAD50 (construct of Figure S3A,B, not shown) (from UniProt Q92878 1-1312) | – | – | – | binds |

The next lines start with the values.

| binding [1] | binding [2] | binding (GST-RNF126 (human)) | binding [3] | Substance |
| --- | --- | --- | --- | --- |
| binds | binds | – | – | ATR (endogenous, HCC1806) (from UniProt Q13535 1-2644) (enzyme) |
| binds | binds | – | – | NBS1 (endogenous, HCC1806) (from UniProt O60934 1-754) |
| binds | binds | – | – | RAD50 (endogenous, HCC1806) (from UniProt Q92878 1-1312) |
